Assay results from paper PMC7069092.

The chains behind the UniProt entries cited, without tags or fusion partners. Where a name states a change or a piece, a line headed by the entry shows the natural chain unless it says otherwise. A line that says so, or that is headed by a name, gives the form on record, which may keep a tag or linker. Residues count along the entry.
Androgen receptor splice variant 7 (AR-V7) (human (endogenous in 22Rv1)) (P10275, form named): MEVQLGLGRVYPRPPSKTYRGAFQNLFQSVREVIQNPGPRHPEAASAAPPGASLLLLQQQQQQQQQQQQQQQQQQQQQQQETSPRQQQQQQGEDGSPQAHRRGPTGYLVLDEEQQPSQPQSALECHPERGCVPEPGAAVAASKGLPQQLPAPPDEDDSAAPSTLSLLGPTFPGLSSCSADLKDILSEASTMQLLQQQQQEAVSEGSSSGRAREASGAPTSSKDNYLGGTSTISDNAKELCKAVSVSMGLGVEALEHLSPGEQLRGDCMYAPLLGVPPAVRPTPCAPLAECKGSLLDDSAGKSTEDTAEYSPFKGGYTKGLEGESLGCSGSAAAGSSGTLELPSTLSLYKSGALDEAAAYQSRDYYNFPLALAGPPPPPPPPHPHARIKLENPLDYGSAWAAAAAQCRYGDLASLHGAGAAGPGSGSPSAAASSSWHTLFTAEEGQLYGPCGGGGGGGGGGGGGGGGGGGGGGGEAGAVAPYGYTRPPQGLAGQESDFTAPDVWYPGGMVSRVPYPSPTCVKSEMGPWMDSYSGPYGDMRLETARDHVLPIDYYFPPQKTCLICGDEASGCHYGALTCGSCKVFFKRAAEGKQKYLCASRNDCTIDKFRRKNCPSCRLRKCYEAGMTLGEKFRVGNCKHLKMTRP
UniProt P11142: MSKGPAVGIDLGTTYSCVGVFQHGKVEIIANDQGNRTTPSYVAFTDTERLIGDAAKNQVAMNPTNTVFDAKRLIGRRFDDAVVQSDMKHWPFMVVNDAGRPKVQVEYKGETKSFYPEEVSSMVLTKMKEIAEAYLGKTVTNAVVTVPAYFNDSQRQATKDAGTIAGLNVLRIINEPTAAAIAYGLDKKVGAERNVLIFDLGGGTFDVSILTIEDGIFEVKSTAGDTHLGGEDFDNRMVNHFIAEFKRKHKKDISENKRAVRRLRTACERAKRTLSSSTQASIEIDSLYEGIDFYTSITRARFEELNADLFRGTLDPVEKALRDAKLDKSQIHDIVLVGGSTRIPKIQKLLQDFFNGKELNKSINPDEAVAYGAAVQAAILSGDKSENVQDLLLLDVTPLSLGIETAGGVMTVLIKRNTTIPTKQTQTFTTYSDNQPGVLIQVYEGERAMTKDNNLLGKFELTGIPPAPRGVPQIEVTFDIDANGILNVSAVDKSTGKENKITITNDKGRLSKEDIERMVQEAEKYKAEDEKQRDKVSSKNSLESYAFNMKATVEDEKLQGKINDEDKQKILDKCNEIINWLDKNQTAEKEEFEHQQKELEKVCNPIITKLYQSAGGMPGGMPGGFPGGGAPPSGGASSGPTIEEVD
UniProt P11021, residues 19-654: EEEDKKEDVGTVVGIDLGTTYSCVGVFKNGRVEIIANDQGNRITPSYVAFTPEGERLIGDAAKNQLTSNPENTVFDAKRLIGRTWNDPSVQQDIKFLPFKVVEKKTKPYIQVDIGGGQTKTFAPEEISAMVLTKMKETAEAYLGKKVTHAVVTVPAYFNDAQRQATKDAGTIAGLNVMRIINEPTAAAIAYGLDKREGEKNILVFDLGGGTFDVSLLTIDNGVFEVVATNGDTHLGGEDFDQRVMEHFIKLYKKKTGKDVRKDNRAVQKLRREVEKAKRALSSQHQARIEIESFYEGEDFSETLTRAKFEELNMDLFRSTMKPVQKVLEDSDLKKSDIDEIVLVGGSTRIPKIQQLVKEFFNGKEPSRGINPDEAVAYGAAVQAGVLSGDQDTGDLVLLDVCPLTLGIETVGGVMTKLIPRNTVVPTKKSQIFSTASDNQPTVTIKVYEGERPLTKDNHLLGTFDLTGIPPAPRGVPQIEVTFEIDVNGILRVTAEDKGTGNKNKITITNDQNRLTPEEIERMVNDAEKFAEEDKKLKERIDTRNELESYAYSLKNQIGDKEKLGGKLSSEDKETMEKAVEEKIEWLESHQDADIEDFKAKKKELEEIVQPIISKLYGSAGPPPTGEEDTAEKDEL
UniProt P08238: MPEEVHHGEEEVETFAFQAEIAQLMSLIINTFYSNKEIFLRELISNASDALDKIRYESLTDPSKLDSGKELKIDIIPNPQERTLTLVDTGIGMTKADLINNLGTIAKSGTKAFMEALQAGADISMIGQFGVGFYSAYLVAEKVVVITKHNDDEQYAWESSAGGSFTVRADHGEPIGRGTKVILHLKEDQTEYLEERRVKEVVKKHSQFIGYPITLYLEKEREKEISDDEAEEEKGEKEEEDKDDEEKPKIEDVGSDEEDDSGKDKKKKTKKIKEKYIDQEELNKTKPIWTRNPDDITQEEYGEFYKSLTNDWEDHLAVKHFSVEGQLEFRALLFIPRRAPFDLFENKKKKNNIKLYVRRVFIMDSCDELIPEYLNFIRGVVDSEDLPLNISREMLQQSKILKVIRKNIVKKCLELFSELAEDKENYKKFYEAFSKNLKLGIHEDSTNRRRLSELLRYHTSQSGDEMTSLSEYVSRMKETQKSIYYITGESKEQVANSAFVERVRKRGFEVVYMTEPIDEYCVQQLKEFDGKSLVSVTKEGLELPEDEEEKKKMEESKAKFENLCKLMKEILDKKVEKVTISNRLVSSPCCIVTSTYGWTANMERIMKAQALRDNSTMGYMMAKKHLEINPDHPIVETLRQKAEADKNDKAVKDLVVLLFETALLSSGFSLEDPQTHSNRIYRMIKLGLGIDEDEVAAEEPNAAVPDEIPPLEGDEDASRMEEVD

Target: Androgen receptor splice variant 7 (AR-V7) (human (endogenous in 22Rv1)) (UniProt P10275)
Test: affinity purification with mass spectrometry; co-IP with AR-V7 antibody beads from 22Rv1 cells, SDS-PAGE, silver staining, biological mass spectrometry

| binding | Substance |
| --- | --- |
| binds | HSP7C (heat shock cognate 71 kDa protein) (from UniProt P11142 1-646) |
| binds | HS90A (Hsp90-alpha) (from UniProt P07900 1-732) |
| binds | glucose-regulated protein 78kD (GRP78, also known as BiP) (from UniProt P11021 19-654) |
| binds | HS90B (Hsp90-beta) (from UniProt P08238 1-724) |

No constants are given. Whether binding was seen depends on the method and setting. In cells and extracts the contact can be indirect. These calls come from enrichment with a bait or labelling near it, and not all partners need be listed.
